According to PubChem BioAssay AID2551 (National Center for Advancing Translational Sciences (NCATS), 2010):
About 17,000 (5.5%) of roughly 310,000 compounds were called active. The shares of active, inactive and inconclusive entries below differ from those in the screen. Calls follow the shape of the dose curve; as a rule, active = well fitted inhibition curve with a large enough effect; inconclusive = small, poorly fitted or top-dose-only effect, or effect the other way; inactive = no such curve, though single readings can be large or run the other way. A potency beside an inconclusive call is a rough fit, not a confirmed value.

Sequences of proteins named here, by UniProt entry; tags and fusion partners are left off. A change or cut given only in a name is not applied to a line headed by its entry.
UniProt P51450: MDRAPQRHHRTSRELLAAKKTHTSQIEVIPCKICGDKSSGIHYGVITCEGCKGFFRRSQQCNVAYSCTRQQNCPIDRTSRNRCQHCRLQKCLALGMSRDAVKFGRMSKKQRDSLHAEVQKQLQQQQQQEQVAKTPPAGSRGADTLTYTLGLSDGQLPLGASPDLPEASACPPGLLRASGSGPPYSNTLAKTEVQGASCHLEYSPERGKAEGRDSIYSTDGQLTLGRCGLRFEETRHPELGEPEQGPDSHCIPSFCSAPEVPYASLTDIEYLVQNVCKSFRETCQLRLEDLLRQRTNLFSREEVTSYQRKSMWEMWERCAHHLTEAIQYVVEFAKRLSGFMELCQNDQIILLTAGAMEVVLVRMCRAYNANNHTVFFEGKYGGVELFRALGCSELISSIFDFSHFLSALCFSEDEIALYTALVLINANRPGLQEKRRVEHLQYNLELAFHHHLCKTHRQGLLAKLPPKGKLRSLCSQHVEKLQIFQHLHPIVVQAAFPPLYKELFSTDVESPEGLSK

Target: Nuclear receptor ROR-gamma (Mus musculus) (UniProt P51450)
Test: qHTS for inhibitors of ROR gamma transcriptional activity; also: nearly all actives have a fitted effect of over 60% in size
Settings: Drosophila S2 Gal4-RORgamma UAS-luciferase reporter, 20 h; series mostly up to 53.6 µM
In short: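 Luminescence from a UAS-regulated Photinus luciferase reporter in stably transfected Drosophila Schneider cells is measured; decreased signal marks ROR gamma inhibition. Fusion expression is induced by 700 uM copper sulfate for 20 hr.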
Potency is read from the fitted curve at half-maximal effect.

Potency, inactive:
CC(NC(=O)COc1ccccc1)C(c1cccs1)N1CCCC1 (centres undefined), Cc1sc2nc(SCC(=O)N3CC(C)OC(C)C3)n(C)c(=O)c2c1C (centres undefined), Cc1cc(C)nc(N2CCC(C(=O)NC3CCCc4ccccc43)CC2)n1 (centres undefined), CCn1cc(C(=O)N[C@@H](CC(C)C)C(=O)NCCCn2ccnc2)c(=O)c2cc3c(cc21)OCO3, COc1ccc(S(=O)(=O)N2CCc3cc4c(cc3C2C)OCCCO4)cc1 (centres undefined), CCc1nn(CC(=O)N2CC(C)CC(C)C2)c(=O)c2cccn12 (centres undefined), O=C(O)c1cc(-c2ccc(N3CCOCC3)cc2)nn1-c1ccc(F)cc1F, NC(=O)CC(NC(=O)Cc1ccc(Br)cc1)c1ccc(NC2CCCCCC2)c([N+](=O)[O-])c1 (centres undefined), Cc1cc2cc(CNC(=O)c3cccc([N+](=O)[O-])c3)ccc2n1C, O=C(Cc1ccccc1[N+](=O)[O-])Nc1nccs1, O=C(Nc1ccc2c(c1)OCO2)[C@@H]1[C@@H]2C(=O)N(C3CCCCC3)C(=O)[C@@H]2C2c3ccccc3C=CN21 (some centres undefined), CCOC(=O)C1(Cc2cccc(Cl)c2)CCCN(CCO)C1 (centres undefined), CCOC(Cn1c(SCC(=O)Nc2cc(C)on2)nc2ccccc2c1=O)OCC, COc1ccccc1N(C)C(=O)c1cc(S(=O)(=O)N2CCc3ccccc32)cn1C, NS(=O)(=O)c1cccc(NC(=O)COC(=O)CCCc2c[nH]c3ccccc23)c1

Potency, active:
COc1cc2cc(CN(CCc3cccc(C)c3)C(=S)NCCCN3CCOCC3)c(=O)[nH]c2cc1OC 7.08 µM, COc1ccc(C(=O)Nc2nc3cc4c(cc3s2)OCCO4)c(OC)c1 0.0282 µM, CN(C)c1ccc(C(=S)NC2CCCCC2)cc1 8.91 µM, Cc1ccc(C(=O)N/N=C2\CCSC2)cc1[N+](=O)[O-] 10 µM, CCn1c(CN2CCN(c3cccc(C)c3C)CC2)n[nH]c1=S 3.98 µM, CCCCNC(=S)NNC(=O)c1cc(-c2ccncc2)nc2ccccc12 11.2 µM, Cc1ccc(NN2C(=O)C=C(c3ccccc3)C2=O)cc1 3.55 µM, O=C(N/N=C/c1ccc([N+](=O)[O-])o1)C1CC1 7.94 µM, Cc1cc(C(=O)NC(=S)Nc2ccccc2N2CCCC2)ccc1[N+](=O)[O-] 2.51 µM, CNc1nc(-c2ccccc2)[n+](-c2ccc(C)cc2)s1 7.94 µM, CCCCCc1ccc(-c2ccc(C(=O)O)cc2)nc1 6.31 µM, NNC(=O)c1cccc(COc2cccc(Br)c2)c1 12.6 µM

Potency, inconclusive:
O=C(/C=C\Nc1ccc2c(c1)OCO2)c1ccc2c(c1)OCO2 11.2 µM [inhibitor, partial curve, poor fit], COc1ccc2nc(SCc3cccc(C)c3)nc(C)c2c1 11.2 µM [inhibitor, single point], O=C(Nc1cccc(Cl)c1)N1CCN(Cc2ccccc2)CC1 12.6 µM [activator, single point], CC(C)C(c1nnnn1Cc1ccccc1)N(Cc1ccco1)Cc1cccs1 (centres undefined) 35.5 µM [activator, single point], O=C(CSc1nnc(CN2CCOCC2)n1-c1ccc(Cl)cc1)Nc1cc(Cl)ccc1O 35.5 µM [activator, single point], CC(NC(=O)COC(=O)c1cn(-c2ccccc2)nc1-c1cccs1)c1ccccc1 (centres undefined) 22.4 µM [inhibitor, single point], COc1ccc(C(=O)CC(=O)C(=O)Nc2cc(OC)ccc2OC)cc1 1.78 µM [inhibitor, full curve], CC(C)(C)NC(=S)N/N=C/c1cc(Br)c(O)c(Br)c1 3.16 µM [inhibitor, full curve], CCN(Cc1nc2ccccc2n1C)c1ccccc1 25.1 µM [inhibitor, single point], Cc1nnc(NC(=O)CCC(=O)N2CCN(CCOc3cccc4ccccc34)CC2)s1 14.1 µM [activator, single point], CCC(C)c1ccc(NC(=S)N2CCN(c3ccccn3)CC2)cc1 (centres undefined) 11.2 µM [inhibitor, partial curve, poor fit], COc1ccc(S(=O)(=O)N2CCC(C(=O)NC(C)CCc3ccccc3)CC2)cc1 (centres undefined) 11.2 µM [activator, partial curve], CCOc1ccc2nc(NS(=O)(=O)c3ccc(NC(C)=O)cc3)sc2c1 12.6 µM [activator, single point], COc1ccc(S(=O)(=O)N(C)C)cc1NC(=O)[C@H](Cc1ccccc1)N1C(=O)c2ccccc2C1=O 35.5 µM [activator, single point], COCCN1CCN(C(=O)c2ccc3nc(Cc4ccc(OC)c(OC)c4)oc3c2)CC1 2.51 µM [activator, partial curve], CCOC(=O)N1CCN(C(=O)c2cc3c(ccc4ccccc43)oc2=O)CC1 3.98 µM [inhibitor, single point], CCn1c(C)nc2cc(C#N)ccc21 15.8 µM [activator, single point], O=C(O)/C=C/c1cn(Cc2ccccc2)nc1-c1ccc(Cl)cc1 2.82 µM [activator, partial curve], COC(=O)C1=C(C)NC(C)=C(C(=O)OCCSc2ccccc2)[C@@H]1C 31.6 µM [activator, single point], CCCc1ccc(OCc2ccc(C(=O)N3CCSCC3)o2)cc1 28.2 µM [activator, single point], O=C(CC1Sc2ncnn2C1=O)Nc1ccccc1 (centres undefined) 35.5 µM [inhibitor, single point], O=S(=O)(c1cccc(-c2n[nH]c(=S)n2C2CCCC2)c1)N1CCOCC1 10 µM [inhibitor, partial curve], Cc1ccccc1Cn1nc(C)c(NC(=O)c2noc3c2CCc2ccccc2-3)c1C 17.8 µM [activator, single point], COc1ccc(-c2oc3cc(OC)c(O)c(OC)c3c(=O)c2OC)cc1O 35.5 µM [activator, single point], CCc1ccccc1NC(=S)N1CCN(c2ccccn2)CC1 25.1 µM [inhibitor, single point], CC(C)OC(=O)c1ccc(NC(=O)C2C3CC4OC(=O)C2C4C3)cc1 (centres undefined) 1.41 µM [activator, partial curve], CC1(C)SC(=S)N(/N=C/c2ccccc2)C1N(O)C(=O)Nc1ccc([N+](=O)[O-])cc1 (centres undefined) 0.178 µM [inhibitor, full curve, poor fit], O=C(Nc1ccc(S(=O)(=O)N2CCCCC2)cc1)c1ccc(CN2CCc3ccccc3C2)cc1 35.5 µM [inhibitor, single point], O=C(O)CCc1cc(I)c(Oc2ccc(O)c(I)c2)c(I)c1 0.316 µM [activator, partial curve], O=C(CSc1nnc(C2COc3ccccc3O2)o1)Nc1nccs1 (centres undefined) 17.8 µM [inhibitor, single point], Cc1nn(-c2ccccc2)c2c1C1(C(=O)N(C(C)C)c3ccccc31)C(C#N)=C(N)O2 (centres undefined) 15.8 µM [inhibitor, single point], CCOC(=O)c1sc2nc(NC(=O)C(C)(C)C)sc2c1C 35.5 µM [inhibitor, single point], O=C(C1CCCN(S(=O)(=O)c2ccccc2[N+](=O)[O-])C1)N1CCN(c2ccccc2)CC1 (centres undefined) 5.62 µM [activator, full curve, poor fit], c1csc(-c2nc3nc4ccccc4nc3n2Cc2ccc3c(c2)OCO3)c1 31.6 µM [activator, single point], Cn1c(=O)c2c(nc(N3CCCCCC3)n2CC(=O)c2ccc(Br)cc2)n(C)c1=O 35.5 µM [activator, single point], Cc1csc(NC(=O)c2cc([N+](=O)[O-])cc([N+](=O)[O-])c2)n1 0.282 µM [inhibitor, full curve], CCc1ccccc1NC(=O)CN(C)C(=O)CSc1nnc(Nc2cccc(C)c2)s1 28.2 µM [activator, single point], COc1ccc(-c2ccc(C)cc2)cc1[C@H]1[C@@H]2C=CCC[C@@]2(C)C(=O)N1Cc1ccccc1 20 µM [activator, single point], CCOC(=O)N1CCN(C(=O)C2CCN(S(=O)(=O)c3cc(Cl)ccc3OCC)CC2)CC1 12.6 µM [activator, partial curve], O=[N+]([O-])c1ccc(Nc2nc(N/N=C/c3cccc(F)c3)nc(N3CCCC3)n2)cc1 20 µM [inhibitor, single point], Cc1ccc(-c2cc3cccc[n+]3cc2-c2ccc(C)cc2)cc1 14.1 µM [inhibitor, single point], Cc1ccc(/C=N/n2c(COc3ccccc3)n[nH]c2=S)o1 31.6 µM [inhibitor, single point]
